PubChem BioAssay AID504791 | Drosophila RNAi Screening Center, 2011

- Assay: 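Genes whose knock-down strengthens or weakens small-RNA reporter silencing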 (primary screen)
- System: Drosophila S2-derived reporter cells
- Reagents: long dsRNA against Drosophila genes, about 150-250 ng dsRNA per well (siRNA assay); about 80-120 ng (miRNA assay)
- Time to read-out: about 5 days (siRNA assay); about 4 days (miRNA assay)
- Treatment: copper sulfate induction of reporters: 25 µM (siRNA assay); 200 mM stated (miRNA assay), 1-2 days before reading
- Measured: 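Dual luciferase assay: Renilla to firefly signal ratio in each well, scaled to the mean ratio of its plate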
- Call rule: 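First-pass picks had plate-scaled ratios over 1.5 for the siRNA assay, over 1.6 for the miRNA assay, or under 0.6; two distinct dsRNAs had to score alike on retest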
The deposit covers about 23,000 reagents; below is an unselected part of those that have a named target and a result. Of all reagents, 199 (0.86%) were called active. 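Plate-scaled ratios behind the calls are not deposited; printed light signals are raw; many rows marked increased or decreased are still called inactive.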 Unmarked entries are inactive. A plus sign joins genes that one reagent is predicted to hit. Not given: the direction of the score.

Gene	dsRNA	stable siRNA reporter change	miRNA reporter change	stable assay Renilla, run 1 (luminescence)	stable assay firefly, run 1 (luminescence)
CG8197	DRSC07105			5163	2.71e5
Cyp12d1-d + Cyp12d1-p	DRSC21507			9985	5.90e5
CG14490	DRSC06461			5214	3.09e5
CG31161	DRSC16144		reporter ratio raised past the hit cutoff	8585	3.50e5
Pngl	DRSC04914			5499	2.98e5
Vti1a	DRSC08563			11133	5.41e5
Ndfip	DRSC11201			9569	3.66e5
CG8478	DRSC16427			5862	4.04e5
Hmgcr	DRSC16704		reporter ratio raised past the hit cutoff	5583	1.94e5
CG15459	DRSC20530			3123	2.87e5
CG15459	DRSC21383			9108	4.58e5
Arr2	DRSC09670			7634	5.87e5
CG13023	DRSC09454			5578	4.22e5
CG13023	DRSC09903			7235	3.30e5
CG10512	DRSC11615			7378	3.90e5
CG16700	DRSC19755			2908	2.41e5
BBS4	DRSC06352			3443	3.73e5
CG17715	DRSC11950			8633	6.73e5
Sos	DRSC03439	reporter ratio lowered past the hit cutoff		5768	5.52e5
Sos	DRSC23624		reporter ratio lowered past the hit cutoff (active)		
cpo	DRSC13265			5220	5.07e5
lolal	DRSC06948			9680	3.27e5
CG18480	DRSC01957			7707	1.79e6
CG17493	DRSC03798			6059	3.63e5
beta-Spec	DRSC20311			6531	4.88e5
CG4238	DRSC00090			6063	4.54e5
CG4238	DRSC00644			7398	5.54e5
CG17601	DRSC20639			4679	2.99e5
Rrp1	DRSC00784			3704	4.08e5
jtb	DRSC06868			7018	3.54e5
Lcp1Psi	DRSC05105			5411	4.33e5
RpS19a	DRSC20281			5543	3.91e5
Prtl99C	DRSC15049			6420	3.44e5
euc	DRSC14492			7823	4.42e5

Entries above marked active:
Gene	dsRNA	stable siRNA reporter change	miRNA reporter change	stable assay Renilla, run 1 (luminescence)	stable assay firefly, run 1 (luminescence)
Sos	DRSC23624		reporter ratio lowered past the hit cutoff (active)		
